38 targets from the supplement of paper PMC10849652 can be followed below.

By UniProt entry, the sequences of proteins in these tests, tags left out. Where a name states a change or a piece, a line headed by the entry shows the natural chain unless it says otherwise.
UniProt Q8N490: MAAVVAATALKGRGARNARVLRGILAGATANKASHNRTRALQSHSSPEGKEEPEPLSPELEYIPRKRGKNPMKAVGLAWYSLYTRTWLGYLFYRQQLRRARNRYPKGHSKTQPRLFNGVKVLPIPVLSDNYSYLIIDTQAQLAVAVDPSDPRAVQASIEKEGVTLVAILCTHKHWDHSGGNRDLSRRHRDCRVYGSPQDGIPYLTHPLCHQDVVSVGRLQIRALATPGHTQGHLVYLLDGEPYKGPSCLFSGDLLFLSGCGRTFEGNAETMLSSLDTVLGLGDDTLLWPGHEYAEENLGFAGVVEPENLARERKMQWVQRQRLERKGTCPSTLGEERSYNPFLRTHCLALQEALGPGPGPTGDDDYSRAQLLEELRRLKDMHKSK
UniProt Q9UIW2: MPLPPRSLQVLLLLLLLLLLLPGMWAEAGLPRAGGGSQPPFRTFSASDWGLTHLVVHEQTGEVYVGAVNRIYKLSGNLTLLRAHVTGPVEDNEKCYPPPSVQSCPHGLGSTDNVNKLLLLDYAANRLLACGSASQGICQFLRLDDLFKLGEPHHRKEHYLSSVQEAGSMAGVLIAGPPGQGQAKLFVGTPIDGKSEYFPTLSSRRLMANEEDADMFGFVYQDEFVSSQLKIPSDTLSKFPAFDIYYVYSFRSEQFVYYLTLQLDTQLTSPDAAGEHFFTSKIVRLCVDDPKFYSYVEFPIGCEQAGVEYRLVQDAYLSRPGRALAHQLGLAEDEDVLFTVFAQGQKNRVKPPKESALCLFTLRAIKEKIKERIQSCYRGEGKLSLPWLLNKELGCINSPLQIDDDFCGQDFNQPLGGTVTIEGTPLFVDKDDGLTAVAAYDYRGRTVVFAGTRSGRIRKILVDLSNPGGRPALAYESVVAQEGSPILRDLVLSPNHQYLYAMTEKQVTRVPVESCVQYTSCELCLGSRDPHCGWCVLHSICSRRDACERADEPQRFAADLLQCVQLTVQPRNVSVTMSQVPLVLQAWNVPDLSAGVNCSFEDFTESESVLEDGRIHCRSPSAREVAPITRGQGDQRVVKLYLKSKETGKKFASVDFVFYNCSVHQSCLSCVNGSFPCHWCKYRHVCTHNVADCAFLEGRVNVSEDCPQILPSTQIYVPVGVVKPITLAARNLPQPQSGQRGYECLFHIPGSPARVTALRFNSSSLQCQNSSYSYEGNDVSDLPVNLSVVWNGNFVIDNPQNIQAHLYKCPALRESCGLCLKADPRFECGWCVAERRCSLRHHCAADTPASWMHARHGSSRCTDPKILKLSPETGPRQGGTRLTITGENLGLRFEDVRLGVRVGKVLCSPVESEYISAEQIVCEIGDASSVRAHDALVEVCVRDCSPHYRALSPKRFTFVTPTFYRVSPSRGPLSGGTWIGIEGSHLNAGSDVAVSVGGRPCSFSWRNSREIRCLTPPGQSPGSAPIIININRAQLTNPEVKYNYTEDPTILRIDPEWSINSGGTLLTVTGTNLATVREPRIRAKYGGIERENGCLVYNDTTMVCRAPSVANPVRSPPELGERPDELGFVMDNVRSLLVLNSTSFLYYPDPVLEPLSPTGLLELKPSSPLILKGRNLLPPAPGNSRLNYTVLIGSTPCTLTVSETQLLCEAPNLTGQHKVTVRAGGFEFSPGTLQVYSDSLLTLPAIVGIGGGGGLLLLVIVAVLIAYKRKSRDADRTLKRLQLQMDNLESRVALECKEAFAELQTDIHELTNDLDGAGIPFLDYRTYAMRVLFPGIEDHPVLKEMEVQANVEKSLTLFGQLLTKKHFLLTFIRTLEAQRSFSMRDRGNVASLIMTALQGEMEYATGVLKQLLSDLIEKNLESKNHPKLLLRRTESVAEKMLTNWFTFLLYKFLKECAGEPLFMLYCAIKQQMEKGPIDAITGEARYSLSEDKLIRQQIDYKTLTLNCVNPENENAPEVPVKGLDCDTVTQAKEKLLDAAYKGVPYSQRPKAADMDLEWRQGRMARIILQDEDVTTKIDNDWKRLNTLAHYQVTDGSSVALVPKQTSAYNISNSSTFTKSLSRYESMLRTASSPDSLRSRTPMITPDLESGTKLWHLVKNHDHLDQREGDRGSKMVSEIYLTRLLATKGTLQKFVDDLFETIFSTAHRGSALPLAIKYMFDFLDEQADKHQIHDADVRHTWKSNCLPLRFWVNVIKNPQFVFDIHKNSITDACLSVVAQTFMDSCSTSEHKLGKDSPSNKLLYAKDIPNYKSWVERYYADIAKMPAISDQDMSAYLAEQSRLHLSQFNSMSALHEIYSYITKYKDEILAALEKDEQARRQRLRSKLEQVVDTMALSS
UniProt Q14181: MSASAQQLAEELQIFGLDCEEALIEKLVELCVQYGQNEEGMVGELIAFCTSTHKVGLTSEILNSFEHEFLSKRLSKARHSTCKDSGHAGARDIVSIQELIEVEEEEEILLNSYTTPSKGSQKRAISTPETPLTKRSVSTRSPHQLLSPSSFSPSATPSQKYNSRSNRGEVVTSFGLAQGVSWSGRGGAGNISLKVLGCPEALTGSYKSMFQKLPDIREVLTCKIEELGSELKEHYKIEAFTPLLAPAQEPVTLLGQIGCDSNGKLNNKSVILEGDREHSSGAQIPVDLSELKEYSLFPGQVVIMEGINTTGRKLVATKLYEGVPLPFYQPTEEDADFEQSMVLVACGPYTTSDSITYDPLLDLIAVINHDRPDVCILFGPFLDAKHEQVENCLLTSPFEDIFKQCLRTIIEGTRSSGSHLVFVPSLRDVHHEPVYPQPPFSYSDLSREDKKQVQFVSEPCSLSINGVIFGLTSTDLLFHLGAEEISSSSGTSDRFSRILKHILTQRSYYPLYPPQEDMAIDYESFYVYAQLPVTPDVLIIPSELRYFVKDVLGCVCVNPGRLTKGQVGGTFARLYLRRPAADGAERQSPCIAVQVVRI
UniProt Q9NW08: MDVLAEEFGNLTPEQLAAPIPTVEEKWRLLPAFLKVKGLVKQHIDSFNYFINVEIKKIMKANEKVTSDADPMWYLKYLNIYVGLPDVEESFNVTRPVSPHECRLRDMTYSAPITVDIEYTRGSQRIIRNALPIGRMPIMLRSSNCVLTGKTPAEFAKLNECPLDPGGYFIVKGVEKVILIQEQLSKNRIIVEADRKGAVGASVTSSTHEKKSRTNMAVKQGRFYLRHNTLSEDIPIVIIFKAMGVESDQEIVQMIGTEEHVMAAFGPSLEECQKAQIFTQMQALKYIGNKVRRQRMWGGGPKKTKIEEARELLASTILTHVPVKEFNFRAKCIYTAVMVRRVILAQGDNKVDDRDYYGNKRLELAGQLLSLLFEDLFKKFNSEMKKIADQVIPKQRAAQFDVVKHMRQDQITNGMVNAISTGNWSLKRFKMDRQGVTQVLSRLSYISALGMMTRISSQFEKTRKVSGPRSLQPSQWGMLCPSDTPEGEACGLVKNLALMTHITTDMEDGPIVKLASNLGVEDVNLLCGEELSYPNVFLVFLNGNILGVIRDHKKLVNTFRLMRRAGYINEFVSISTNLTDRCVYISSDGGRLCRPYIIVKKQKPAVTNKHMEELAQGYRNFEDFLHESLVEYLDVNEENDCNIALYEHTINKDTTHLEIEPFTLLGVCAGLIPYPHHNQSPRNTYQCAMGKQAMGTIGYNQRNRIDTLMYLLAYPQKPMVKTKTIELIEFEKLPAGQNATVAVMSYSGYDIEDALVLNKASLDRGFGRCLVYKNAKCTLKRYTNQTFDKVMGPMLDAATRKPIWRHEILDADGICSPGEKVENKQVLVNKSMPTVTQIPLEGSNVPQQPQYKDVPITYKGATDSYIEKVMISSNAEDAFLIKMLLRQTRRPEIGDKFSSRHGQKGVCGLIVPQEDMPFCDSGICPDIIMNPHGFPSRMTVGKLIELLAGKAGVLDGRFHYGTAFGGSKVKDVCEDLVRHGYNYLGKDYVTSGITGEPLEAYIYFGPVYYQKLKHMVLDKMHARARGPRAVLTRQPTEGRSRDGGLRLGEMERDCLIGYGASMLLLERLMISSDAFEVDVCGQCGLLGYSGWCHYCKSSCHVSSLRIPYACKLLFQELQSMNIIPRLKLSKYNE
UniProt O15318: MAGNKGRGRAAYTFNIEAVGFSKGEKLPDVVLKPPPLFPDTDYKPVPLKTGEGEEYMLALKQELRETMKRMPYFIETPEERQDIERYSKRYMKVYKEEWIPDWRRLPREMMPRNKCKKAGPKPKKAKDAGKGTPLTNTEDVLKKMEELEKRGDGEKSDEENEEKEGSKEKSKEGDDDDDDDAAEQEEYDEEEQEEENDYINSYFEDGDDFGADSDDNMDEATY
UniProt Q15063: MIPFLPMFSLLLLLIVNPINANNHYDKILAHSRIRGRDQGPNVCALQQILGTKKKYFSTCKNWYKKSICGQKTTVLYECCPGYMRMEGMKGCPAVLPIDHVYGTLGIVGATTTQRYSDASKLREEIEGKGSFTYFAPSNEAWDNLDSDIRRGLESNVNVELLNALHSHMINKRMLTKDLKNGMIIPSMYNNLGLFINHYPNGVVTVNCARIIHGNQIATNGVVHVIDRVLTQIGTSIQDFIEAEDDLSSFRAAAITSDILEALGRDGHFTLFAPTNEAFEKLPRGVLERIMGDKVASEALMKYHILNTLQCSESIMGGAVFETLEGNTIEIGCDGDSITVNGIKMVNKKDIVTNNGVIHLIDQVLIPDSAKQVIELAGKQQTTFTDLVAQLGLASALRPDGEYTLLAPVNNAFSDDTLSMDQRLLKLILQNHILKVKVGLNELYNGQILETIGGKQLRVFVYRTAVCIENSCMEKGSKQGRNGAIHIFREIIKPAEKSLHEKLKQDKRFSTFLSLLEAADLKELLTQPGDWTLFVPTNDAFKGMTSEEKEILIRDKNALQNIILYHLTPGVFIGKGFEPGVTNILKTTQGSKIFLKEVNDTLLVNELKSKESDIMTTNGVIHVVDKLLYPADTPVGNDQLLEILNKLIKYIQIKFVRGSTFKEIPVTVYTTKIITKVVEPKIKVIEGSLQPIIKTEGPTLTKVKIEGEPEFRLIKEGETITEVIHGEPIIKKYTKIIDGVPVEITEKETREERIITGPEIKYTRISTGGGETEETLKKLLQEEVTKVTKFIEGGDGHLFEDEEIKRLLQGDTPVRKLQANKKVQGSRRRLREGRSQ
UniProt Q8IY17: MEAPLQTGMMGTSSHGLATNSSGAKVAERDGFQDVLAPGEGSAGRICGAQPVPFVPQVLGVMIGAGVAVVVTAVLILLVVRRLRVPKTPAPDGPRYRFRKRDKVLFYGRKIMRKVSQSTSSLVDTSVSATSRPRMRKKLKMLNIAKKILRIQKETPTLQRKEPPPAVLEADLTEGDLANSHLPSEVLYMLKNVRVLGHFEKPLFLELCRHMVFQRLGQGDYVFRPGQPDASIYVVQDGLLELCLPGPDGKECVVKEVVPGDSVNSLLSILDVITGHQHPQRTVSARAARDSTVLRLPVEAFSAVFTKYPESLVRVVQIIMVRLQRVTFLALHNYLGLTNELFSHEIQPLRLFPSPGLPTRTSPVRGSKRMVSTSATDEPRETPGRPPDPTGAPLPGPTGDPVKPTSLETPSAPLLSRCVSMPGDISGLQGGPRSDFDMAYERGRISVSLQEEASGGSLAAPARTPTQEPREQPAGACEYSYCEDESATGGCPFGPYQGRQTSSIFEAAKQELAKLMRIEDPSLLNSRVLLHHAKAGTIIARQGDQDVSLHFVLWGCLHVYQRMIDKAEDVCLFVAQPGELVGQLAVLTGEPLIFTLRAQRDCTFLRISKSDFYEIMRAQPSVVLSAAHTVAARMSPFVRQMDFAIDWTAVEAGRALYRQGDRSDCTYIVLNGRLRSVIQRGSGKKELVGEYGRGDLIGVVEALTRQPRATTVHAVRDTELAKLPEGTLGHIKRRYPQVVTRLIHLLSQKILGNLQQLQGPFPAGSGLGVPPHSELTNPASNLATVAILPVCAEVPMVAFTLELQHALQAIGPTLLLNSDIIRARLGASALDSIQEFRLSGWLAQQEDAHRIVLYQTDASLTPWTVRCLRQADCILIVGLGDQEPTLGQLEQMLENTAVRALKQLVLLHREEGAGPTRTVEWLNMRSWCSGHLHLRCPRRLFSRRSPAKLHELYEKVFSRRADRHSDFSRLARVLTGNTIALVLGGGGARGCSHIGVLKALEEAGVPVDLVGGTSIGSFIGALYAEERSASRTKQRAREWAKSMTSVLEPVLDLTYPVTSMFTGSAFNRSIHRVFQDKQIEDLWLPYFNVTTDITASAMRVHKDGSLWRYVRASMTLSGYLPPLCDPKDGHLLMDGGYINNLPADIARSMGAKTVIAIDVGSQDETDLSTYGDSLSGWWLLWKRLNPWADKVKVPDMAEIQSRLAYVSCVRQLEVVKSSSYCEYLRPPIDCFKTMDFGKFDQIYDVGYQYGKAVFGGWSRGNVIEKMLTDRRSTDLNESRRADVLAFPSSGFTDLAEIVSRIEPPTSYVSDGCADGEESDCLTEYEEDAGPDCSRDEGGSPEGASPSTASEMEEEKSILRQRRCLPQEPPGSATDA
UniProt Q9NRF9: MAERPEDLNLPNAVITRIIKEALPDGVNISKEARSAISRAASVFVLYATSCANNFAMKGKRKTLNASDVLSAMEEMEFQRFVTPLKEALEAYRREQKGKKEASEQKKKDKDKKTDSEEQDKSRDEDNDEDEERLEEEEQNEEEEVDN

The other results are listed elsewhere or left out.

Compound in one assay: C1=CC2=NC=CN=C2C=C1/C=C/3\C(=O)NC(=O)S3
Description: log2 fold change, soluble protein after heating vs DMSO (PISA); higher = thermal stabilisation; K562 lysate, 10 uM; active = over 0.2 and 3.5 SD of the protein, either way, in both replicates (recomputed). Put shortly:
(§1)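 Following dounce homogenisation of K562 pellets in PBS pH 7.4 with 1 mM MgCl2, crude extract at 1 mg/mL protein was incubated for 30 min with 10 μM compound. Aliquots were then heated for 3 min over 48°C-58°C and pooled, NP-40 was added to 0.5% at 4°C, and soluble protein was recovered as the supernatant at 21,000xg for 90 min. Channel-sum-equalised TMTpro 16plex LC-MS/MS quantified this protein. Each value, from duplicates, is a log-two fold change in thermal stability relative to solvent controls.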
On to POLD1 (UniProt P28340), for which the log2 fold change was inactive: -0.008.
Same read-out and setting: then POLR1D (UniProt P0DPB6), with inactive: -0.08.
Still for that read-out and setting: the figure for POLR2G (UniProt P62487) is inactive: 0.029.
As for PNKD isoform 2 (UniProt Q8N490), the log2 fold change was inactive: -0.026.
On to POP1 (UniProt Q99575), for which the log2 fold change was inactive: -0.011.
Still for that read-out and setting: the figure for POLR2B (UniProt P30876) is inactive: -0.016; for POGLUT2 (UniProt Q6UW63) it is inactive: 0.011.
Same read-out and setting: the figure for PLXNA1 (UniProt Q9UIW2) is inactive: 0.007; for PPIB (UniProt P23284) it is inactive: -0.018.
For POLR1B isoform 3 (UniProt Q9H9Y6), the log2 fold change was inactive: -0.006.
Same read-out and setting: then PMF1 (UniProt Q6P1K2), with inactive: -0.017.
The same measure, in the same setting: then PLXNB2 (UniProt O15031), with inactive: -0.037; and PNKD (UniProt Q8N490), with inactive: 0.052.
With PPFIA2 (UniProt O75334), the log2 fold change is inactive: 0.065.
The same measure, in the same setting: the figure for POP5 (UniProt Q969H6) is inactive: 0.073; for POLR2H (UniProt P52434) it is inactive: 0.034; for POLD3 (UniProt Q15054) it is inactive: -0.048.
Same read-out and setting: the figure for PMM2 (UniProt O15305) is inactive: 0.05.
On the same count and under the same terms, the figure for POLD2 (UniProt P49005) is inactive: -0.016; for PNPLA2 (UniProt Q96AD5) it is inactive: -0.002.
As to PPFIA1 (UniProt Q13136), the log2 fold change was inactive: -0.017.
Consider POLA2 (UniProt Q14181), for which the log2 fold change was inactive: -0.019.
For POT1 (UniProt Q9NUX5), the log2 fold change was inactive: 0.044.
For PNISR (UniProt Q8TF01), the log2 fold change is inactive: -0.017.
For PMPCA (UniProt Q10713), the log2 fold change was inactive: -0.006.
On the same count and under the same terms, then POP4 (UniProt O95707), with inactive: 0.
As for PLOD1 (UniProt Q02809), the log2 fold change is inactive: 0.01.
Still for that read-out and setting: the figure for POLR3B (UniProt Q9NW08) is inactive: -0.02.
As for PMM1 (UniProt Q92871), the log2 fold change is inactive: -0.217.
POLR3H (UniProt Q9Y535): the log2 fold change was inactive: -0.044.
Still for that read-out and setting: then POLR3G (UniProt O15318), with inactive: -0.014.
As to POGK (UniProt Q9P215), the log2 fold change is inactive: -0.023.
With PPIA (UniProt P62937), the log2 fold change was inactive: -0.022.
The same measure, in the same setting: the figure for PPA2 (UniProt Q9H2U2) is inactive: 0.003; for POSTN (UniProt Q15063) it is inactive: -0.046; for PPAN isoform 3 (UniProt Q9NQ55) it is inactive: -0.009.
Turning to PNPLA6 (UniProt Q8IY17), the log2 fold change is inactive: -0.055.
The same measure, in the same setting: then POLE3 (UniProt Q9NRF9), with inactive: -0.031.

Compound in another assay: C1=CC=C(C=C1)C2=NC(=C(N2)C3=CC=NC=C3)C4=CC(=C(C=C4)Cl)O
The description is as above. Put shortly:
as §1
As for POLD1 (UniProt P28340), the log2 fold change was inactive: 0.015.
Still for that read-out and setting: then POLR1D (UniProt P0DPB6), with inactive: -0.019; and POLR2G (UniProt P62487), with inactive: 0.022; and PNKD isoform 2 (UniProt Q8N490), with inactive: -0.062.
The same measure, in the same setting: then POP1 (UniProt Q99575), with inactive: -0.002.
As to POLR2B (UniProt P30876), the log2 fold change was inactive: -0.008.
Consider POGLUT2 (UniProt Q6UW63), for which the log2 fold change was inactive: -0.04.
Consider PLXNA1 (UniProt Q9UIW2), for which the log2 fold change was inactive: -0.013.
Turning to PPIB (UniProt P23284), the log2 fold change is inactive: -0.01.
Take POLR1B isoform 3 (UniProt Q9H9Y6): the log2 fold change was inactive: 0.009.
Take PMF1 (UniProt Q6P1K2): the log2 fold change was inactive: 0.013.
Same read-out and setting: the figure for PLXNB2 (UniProt O15031) is inactive: 0.005; for PNKD (UniProt Q8N490) it is inactive: -0.005.
Turning to PPFIA2 (UniProt O75334), the log2 fold change is inactive: 0.012.
In the case of POP5 (UniProt Q969H6), the log2 fold change was inactive: 0.024.
The same measure, in the same setting: then POLR2H (UniProt P52434), with inactive: -0.013; and POLD3 (UniProt Q15054), with inactive: 0.01.
On the same count and under the same terms, the figure for PMM2 (UniProt O15305) is inactive: 0.016; for POLD2 (UniProt P49005) it is inactive: 0.005.
Still for that read-out and setting: the figure for PNPLA2 (UniProt Q96AD5) is inactive: 0.014.
Regarding PPFIA1 (UniProt Q13136), the log2 fold change was inactive: -0.035.
On the same count and under the same terms, then POLA2 (UniProt Q14181), with inactive: 0.002; and POT1 (UniProt Q9NUX5), with inactive: 0.092.
Still for that read-out and setting: then PNISR (UniProt Q8TF01), with inactive: -0.012; and PMPCA (UniProt Q10713), with inactive: 0.043.
The same measure, in the same setting: the figure for POP4 (UniProt O95707) is inactive: 0.028; for PLOD1 (UniProt Q02809) it is inactive: -0.025; for POLR3B (UniProt Q9NW08) it is inactive: 0.012.
For the target PMM1 (UniProt Q92871), the log2 fold change was inactive: -0.078.
The same measure, in the same setting: the figure for POLR3H (UniProt Q9Y535) is inactive: -0.052; for POLR3G (UniProt O15318) it is inactive: -0.03; for POGK (UniProt Q9P215) it is inactive: 0.104.
Same read-out and setting: then PPIA (UniProt P62937), with inactive: -0.005; and PPA2 (UniProt Q9H2U2), with inactive: 0.003; and POSTN (UniProt Q15063), with inactive: -0.195.
Same read-out and setting: then PPAN isoform 3 (UniProt Q9NQ55), with inactive: -0.001; and PNPLA6 (UniProt Q8IY17), with inactive: -0.257; and POLE3 (UniProt Q9NRF9), with inactive: 0.031.
